Results deposited as PubChem BioAssay AID1259308 (NCATS, 2017)
Test: 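Candidate targets for better recombinant protein yield in mammalian cells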 (primary screen). Cell system: human HEK293 embryonic kidney cells stably expressing firefly luciferase (HEK-CMV-Luc2-Hygro). Reagent: single siRNA against human genes, 0.8 pmol siRNA per well. Timing: 72 h. Measured: 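Luciferase light (ONE-Glo) measured on one replicate plate set and viability (CellTiter-Glo) on the other, scaled to a negative control siRNA, with robust z-scores and luciferase per cell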. Scale: total luciferase, z-score and total luciferase, % of control: higher = more reporter protein produced; luciferase per cell, z-score: higher = more reporter output per viable cell; viable cells, % of control: higher = more viable cells. Call rule: 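Active when the median/MAD z-score for overall luciferase is greater than 3; a gene was taken forward for validation with new siRNAs if at least two of its three siRNAs passed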. Meaning of the calls: active = raised luciferase; inactive = no rise.
Shown is one part, drawn at random, of about 59,000 reagents. In the full data, about 1,510 (2.6%) were called active. 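Calls use total luciferase alone and ignore viability, so some active siRNAs may act by altering cell number.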 A number with no mark means an inactive call. The numbers tell different reagents against one gene apart.

| gene | reagent no. | total luciferase, z-score | total luciferase, % of control | luciferase per cell, z-score | viable cells, % of control |
| --- | --- | --- | --- | --- | --- |
| CHGB (chromogranin B) | 1 | -2.16 | 38.9 | -2.77 | 90 |
| CHGB (chromogranin B) | 2 | -0.101 | 79.9 | 0.131 | 86.2 |
| CHGB (chromogranin B) | 3 | -1.49 | 52.3 | -1.05 | 77.1 |
| ARRDC1 (arrestin domain containing 1) | 1 | -0.634 | 69.3 | -0.293 | 83.6 |
| ARRDC1 (arrestin domain containing 1) | 2 | 0.596 | 93.7 | 0.304 | 96.7 |
| ARRDC1 (arrestin domain containing 1) | 3 | 0.762 | 97 | 0.743 | 89.2 |
| POU2F3 (POU class 2 homeobox 3) | 1 | -0.59 | 70.2 | -1.2 | 108 |
| POU2F3 (POU class 2 homeobox 3) | 2 | -0.113 | 79.6 | -0.166 | 93 |
| POU2F3 (POU class 2 homeobox 3) | 3 | -1.55 | 51 | -1.35 | 81.4 |
| TCHHL1 (trichohyalin like 1) | 1 | 0.757 | 96.9 | 1.26 | 77.8 |
| TCHHL1 (trichohyalin like 1) | 2 | 1.16 | 105 | 1.41 | 80.8 |
| TCHHL1 (trichohyalin like 1) | 3 | -0.177 | 78.4 | 0.391 | 79 |
| MLF2 (myeloid leukemia factor 2) | 1 | -0.159 | 78.7 | -0.736 | 107 |
| MLF2 (myeloid leukemia factor 2) | 2 | 0.845 | 98.7 | 0.491 | 96.9 |
| MLF2 (myeloid leukemia factor 2) | 3 | -1.28 | 56.4 | -1.05 | 83.1 |
| SH3RF1 (SH3 domain containing ring finger 1) | 1 | -0.42 | 73.5 | -0.987 | 107 |
| SH3RF1 (SH3 domain containing ring finger 1) | 2 | 0.288 | 87.6 | 0.0212 | 97.4 |
| SH3RF1 (SH3 domain containing ring finger 1) | 3 | 0.799 | 97.8 | 0.314 | 101 |
| MANEA (mannosidase endo-alpha) | 1 | 1.72 | 116 | 1.9 | 78.6 |
| MANEA (mannosidase endo-alpha) | 2 | 1.62 | 114 | 0.636 | 108 |
| MANEA (mannosidase endo-alpha) | 3 | -0.969 | 62.6 | -0.531 | 80.5 |
| CLEC5A (C-type lectin domain containing 5A) | 1 | 0.414 | 90.1 | 2.02 | 59.1 |
| CLEC5A (C-type lectin domain containing 5A) | 2 | -0.282 | 76.3 | 0.706 | 70.8 |
| CLEC5A (C-type lectin domain containing 5A) | 3 | 1.3 | 108 | 2.67 | 59.6 |
| JDP2 (Jun dimerization protein 2) | 1 | 0.218 | 86.2 | 1.3 | 68.5 |
| JDP2 (Jun dimerization protein 2) | 2 | -0.00867 | 81.7 | -0.401 | 101 |
| JDP2 (Jun dimerization protein 2) | 3 | -0.567 | 70.6 | 0.174 | 75.4 |
| CDC14C (cell division cycle 14C) | 1 | 3.33 (active) | 148 | 2.32 | 89.8 |
| CDC14C (cell division cycle 14C) | 2 | -0.666 | 68.6 | -0.498 | 87.4 |
| CDC14C (cell division cycle 14C) | 3 | -0.683 | 68.3 | -1.11 | 102 |
| ZSCAN22 (zinc finger and SCAN domain containing 22) | 1 | -2.03 | 41.6 | -1.53 | 69.5 |
| ZSCAN22 (zinc finger and SCAN domain containing 22) | 2 | -3.28 | 16.7 | -1.95 | 31.1 |
| ZSCAN22 (zinc finger and SCAN domain containing 22) | 3 | -0.568 | 70.6 | 0.0436 | 78 |
| MRPL17 (mitochondrial ribosomal protein L17) | 1 | -0.384 | 74.2 | 0.0337 | 82.2 |
| MRPL17 (mitochondrial ribosomal protein L17) | 2 | -0.45 | 72.9 | -0.0107 | 81.7 |
| MRPL17 (mitochondrial ribosomal protein L17) | 3 | -0.787 | 66.2 | 2.12 | 42.4 |
| COX5B (cytochrome c oxidase subunit 5B) | 1 | -0.0549 | 80.8 | -0.726 | 109 |
| COX5B (cytochrome c oxidase subunit 5B) | 2 | 0.375 | 89.4 | 0.47 | 88.2 |
| COX5B (cytochrome c oxidase subunit 5B) | 3 | -1.46 | 52.9 | -0.544 | 68.2 |
| GNAI1 (G protein subunit alpha i1) | 1 | 1.29 | 108 | 1.39 | 83.3 |
| GNAI1 (G protein subunit alpha i1) | 2 | 0.484 | 91.5 | 0.5 | 89.6 |
| GNAI1 (G protein subunit alpha i1) | 3 | 0.207 | 86 | 0.816 | 77.5 |
| DOLPP1 (dolichyldiphosphatase 1) | 1 | -0.636 | 69.2 | -0.151 | 80.5 |
| DOLPP1 (dolichyldiphosphatase 1) | 2 | -0.124 | 79.4 | -0.53 | 102 |
| DOLPP1 (dolichyldiphosphatase 1) | 3 | 0.327 | 88.4 | 0.596 | 84.4 |
| A1CF (APOBEC1 complementation factor) | 1 | 0.83 | 98.4 | 0.707 | 91.3 |
| A1CF (APOBEC1 complementation factor) | 2 | 0.371 | 89.3 | -0.277 | 107 |
| A1CF (APOBEC1 complementation factor) | 3 | -1.1 | 60 | -1.83 | 109 |
| PKN1 (protein kinase N1) | 1 | -2.45 | 33.2 | -1.54 | 55.6 |
| PKN1 (protein kinase N1) | 2 | 1.1 | 104 | 1.63 | 75.6 |
| PKN1 (protein kinase N1) | 3 | -0.0668 | 80.6 | -0.686 | 108 |
| PROB1 (proline rich basic protein 1) | 1 | -0.27 | 76.5 | 0.345 | 78.1 |
| PROB1 (proline rich basic protein 1) | 2 | 2.73 | 136 | 2 | 90 |
| PROB1 (proline rich basic protein 1) | 3 | -0.0676 | 80.5 | 0.386 | 81.3 |
| PKMYT1 (protein kinase, membrane associated tyrosine/threonine 1) | 1 | -0.526 | 71.4 | -0.613 | 93.8 |
| PKMYT1 (protein kinase, membrane associated tyrosine/threonine 1) | 2 | 0.142 | 84.7 | -0.61 | 111 |
| PKMYT1 (protein kinase, membrane associated tyrosine/threonine 1) | 3 | 5.01 (active) | 182 | 3.03 | 91.4 |
